Results taken from patent publication US20030212034A1, “Method of treatment of obesity and paralyzed muscle and ergogenic aids” (priority 2002, published 2003).

How the values were obtained:
Type in all cases: in vivo, rat
[1] = Muscle weights in 3-day denervated and contralateral control muscles; details: AICAR 1 mg/g at ~0, ~24, ~48 h after denervation
Description: Rats were anesthetized with ether and the sciatic nerve of the right hindlimb was severed. The left hindlimb was sham operated to serve as a control. Both skin wounds were closed with a metal clips. The rats used for the acute study were also implanted with a jugular catheter which was exteriorized on the back of the neck at the time of denervation for rapid administration of anesthesia.
Rats were injected either with AICAR (1 mg in 0.9% NaCl/g body weight) or a 0.9% NaCl solution ˜0, ˜24, and ˜48 hours after denervation and were then sacrificed ˜72 hours after denervation without injection. Rats were anesthetized with sodium pentobarbital (4.8 mg/100 g. body weight), soleus and gastrocnemius muscles from both sham and denervated sides were extracted, and muscles were quick frozen in liquid nitrogen and stored for analysis.

[2] = ATP and CP in neutralized perchloric acid extracts of muscle
[3] = Muscle glycogen after chronic AICAR injection; details: chronic AICAR 1 mg/g daily 4 wk, day after last injection
[4] = red quadriceps, 60 min after AICAR injection, after daily injections for 4 wk
[5] = red quadriceps, 60 min after single AICAR injection 1 mg/g s.c., no chronic treatment
[6] = soleus, 60 min after AICAR injection, after daily injections for 4 wk
[7] = soleus, 60 min after single AICAR injection 1 mg/g s.c., no chronic treatment
[8] = white quadriceps, 60 min after AICAR injection, after daily injections for 4 wk
[9] = white quadriceps, 60 min after single AICAR injection 1 mg/g s.c., no chronic treatment

NC(=O)c1ncn([C@@H]2O[C@H](CO)[C@@H](O)[C@H]2O)c1N [AICAR, 5-aminoimidazole-4-carboxamide-1-β-D-ribofuranoside]
Muscle Weight, Gastrocnemius ([1]; 3-day denervated muscle): 920 ± 46 mg | Muscle Weight, Soleus ([1]; 3-day denervated muscle): 67 ± 3.0 mg | Muscle Weight, Gastrocnemius ([1]; contralateral control muscle): 1,055 ± 45 mg | Muscle Weight, Soleus ([1]; contralateral control muscle): 82 ± 4.4 mg | ATP [2, 4]: 8.6 ± 0.2 µmol/g | CP [2, 4]: 19.6 ± 0.4 µmol/g | ATP [2, 5]: 9.2 ± 0.3 µmol/g | CP [2, 5]: 22.4 ± 3.5 µmol/g | ATP [2, 6]: 5.1 ± 0.5 µmol/g | CP [2, 6]: 13.8 ± 0.9 µmol/g | ATP [2, 7]: 6.5 ± 0.8 µmol/g | CP [2, 7]: 12.2 ± 1.2 µmol/g | ATP [2, 8]: 9.6 ± 0.2 µmol/g | CP [2, 8]: 21.9 ± 0.8 µmol/g | ATP [2, 9]: 8.0 ± 0.3 µmol/g | CP [2, 9]: 17.6 ± 0.8 µmol/g | Glycogen ([3]; red quadriceps): 9.1 ± 0.4 mg/g | Glycogen ([3]; soleus): 5.8 ± 0.4 mg/g | Glycogen ([3]; white quadriceps): 12.3 ± 0.4 mg/g
